Assay results published in US9951115B2, “CGRP agonist peptides” (priority 2013, dated 2018).
At least one structure is not confirmed: it was looked up by name or label, or the drawing left a doubt. Bridge positions count the residues as written; N and C are the ends. Peptide text beside a SMILES is read from it.

Chains of the proteins cited; added tags and fusions are not shown. Residues count along the entry.
UniProt O60894, 27-148: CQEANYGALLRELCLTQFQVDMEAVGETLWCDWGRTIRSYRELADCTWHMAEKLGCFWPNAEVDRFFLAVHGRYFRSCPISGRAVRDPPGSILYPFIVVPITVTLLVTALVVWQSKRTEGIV
UniProt Q16602, 23-461: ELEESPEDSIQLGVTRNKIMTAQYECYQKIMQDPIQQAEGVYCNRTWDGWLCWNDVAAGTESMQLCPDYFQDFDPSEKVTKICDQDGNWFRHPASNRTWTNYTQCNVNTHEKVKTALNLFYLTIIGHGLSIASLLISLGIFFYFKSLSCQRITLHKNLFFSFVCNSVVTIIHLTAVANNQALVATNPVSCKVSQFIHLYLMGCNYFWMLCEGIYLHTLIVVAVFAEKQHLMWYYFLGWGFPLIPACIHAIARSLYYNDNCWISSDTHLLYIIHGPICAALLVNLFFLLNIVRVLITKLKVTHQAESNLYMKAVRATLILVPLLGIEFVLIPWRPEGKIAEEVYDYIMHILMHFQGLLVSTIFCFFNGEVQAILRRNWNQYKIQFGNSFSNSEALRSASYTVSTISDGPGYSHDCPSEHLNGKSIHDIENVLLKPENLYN

Target: T1, CALCRL:RAMP1 (CGRP receptor) (Homo sapiens, UniProt O60894+Q16602)
T1 construct: host or cells: Freestyle 293F (CRE-bla reporter line)
Assay: CALCRL:RAMP1 CRE-bla Freestyle 293F agonist screen (CGRP receptor)
Format: cell-based
Conditions: CALCRL:RAMP1-CRE-bla Freestyle 293F cells, 5 hours incubation, FIG. 1; read-out: EC50 concentration, activation of the CGRP receptor

**Q.** With `CC(C)C[C@H](NC(=O)[C@H](CCCNC(=N)N)NC(=O)CNC(=O)[C@H](CC(C)C)NC(=O)[C@@H](NC(=O)[C@@H]1CSSC[C@H](NC(=O)[C@H](C)N)C(=O)N[C@@H](CC(=O)O)C(=O)N[C@@H]([C@@H](C)O)C(=O)N[C@@H](C)C(=O)N[C@@H]([C@@H](C)O)C(=O)N1)C(C)C)C(=O)N[C@@H](CO)C(=O)N[C@@H](CCC(N)=O)C(=O)N[C@@H](CCC(=O)O)C(=O)N[C@@H](CC(C)C)C(=O)N[C@@H](Cc1c[nH]cn1)C(=O)N[C@@H](CCCNC(=N)N)C(=O)N[C@@H](CC(C)C)C(=O)N[C@@H](CCC(N)=O)C(=O)N[C@H](C(=O)N[C@@H](Cc1ccc(O)cc1)C(=O)N1CCC[C@H]1C(=O)N[C@@H](CCCNC(=N)N)C(=O)N[C@H](C(=O)N[C@@H](CC(N)=O)C(=O)N[C@H](C(=O)NCC(=O)N[C@@H](CO)C(=O)N[C@@H](CCCCN)C(=O)N[C@@H](C)C(=O)N[C@@H](Cc1ccccc1)C(N)=O)C(C)C)[C@@H](C)O)[C@@H](C)O` [ACX017] (H-ACDTATCVLGRLSQELHRLQTYPRTNVGSKAF-NH2; disulfide 2-7) as the molecule, how does the EC50 read?
**A.** Its EC50 is about 105 nM.
